Molecular target: Mycobacterium thermoresistible (Mtr) LpqY (Mycolicibacterium thermoresistibile, UniProt G7CES0)
Assay type: binding
Details: single dose MST screen against LpqY

Amino acid sequences for entries named in this document (tags omitted). Residues count along the entry.
UniProt G7CES0, 29-471: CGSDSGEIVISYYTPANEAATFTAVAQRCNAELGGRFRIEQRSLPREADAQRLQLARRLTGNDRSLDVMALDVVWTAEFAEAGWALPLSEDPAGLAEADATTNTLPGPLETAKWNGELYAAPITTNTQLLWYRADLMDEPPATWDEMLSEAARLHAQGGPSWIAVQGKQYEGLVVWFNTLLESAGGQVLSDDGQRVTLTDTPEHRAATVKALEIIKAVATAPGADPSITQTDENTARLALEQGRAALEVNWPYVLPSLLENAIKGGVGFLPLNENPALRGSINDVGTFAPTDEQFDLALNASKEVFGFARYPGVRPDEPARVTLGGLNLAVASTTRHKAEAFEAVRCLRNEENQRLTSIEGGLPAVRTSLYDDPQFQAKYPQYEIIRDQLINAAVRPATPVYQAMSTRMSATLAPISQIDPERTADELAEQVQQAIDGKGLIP

Compound: CN1CCCC1CCO[C@](C)(c1ccccc1)c1ccc(Cl)cc1 (stereo partly shown) [MMV637229]
- Pathogen Box screen signal/noise ratio: 3.2

— publication PMC9579956 (RSC Medicinal Chemistry, 2022)
